PubChem BioAssay AID686938 – Drosophila RNAi Screening Center, 2013

Assay: 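Looking for CRAC channel components and the factors controlling them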 (primary screen)
Cell system: Drosophila S2R+ cells
Knock-down reagent: long dsRNA against Drosophila genes, about 0.25 µg dsRNA per well, roughly 10,000 cells
Timing: 5 days of knock-down before the calcium assay
Treatment: thapsigargin (SERCA pump blocker) to empty calcium stores; entry signal taken 4 min after adding it
Measured: 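Duplicate raw fluo-4 intensities per well from a plate reader, at rest and four minutes after thapsigargin emptied calcium stores; entry-to-rest ratio filled for only some wells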
Reading the numbers: calcium entry signal: higher = stronger calcium signal after store depletion; entry to resting ratio: higher = more calcium entry relative to resting level; resting calcium signal: higher = higher resting calcium signal
Rule for the call: 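Called when the plate z-score of the entry-to-rest ratio, mean of duplicates, falls below −3; wells with low overall dye signal (Fmax z below −2) or more than five off-targets excluded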
Meaning of the calls: active = strongly reduced calcium entry; inactive = no strong reduction
In all, the deposit lists about 23,000 reagents; below is a random part of those with a known target gene and a result. Of all reagents, 75 (0.33%) got an active call. 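Raw plate signals without normalisation; calls rest on plate z-scores that were not deposited; ratio present for only 364 wells.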 Unmarked entries are inactive. Not given: the dose of the treatment.

| Target gene | DRSC id | calcium entry signal, replicate 1 (fluorescence units) | calcium entry signal, replicate 2 (fluorescence units) | entry to resting ratio | resting calcium signal, replicate 1 (fluorescence units) | resting calcium signal, replicate 2 (fluorescence units) |
| --- | --- | --- | --- | --- | --- | --- |
| CG9459 | DRSC16496 | 3.58e7 | 4.04e7 | – | 1.85e7 | 2.00e7 |
| fd96Ca (forkhead domain 96Ca) | DRSC16946 | 4.04e7 | 6.01e7 | – | 2.01e7 | 2.71e7 |
| CG15196 | DRSC19643 | 2.64e7 | 3.82e7 | – | 1.44e7 | 1.83e7 |
| Dph4 (Diphthamide biosynthesis 4) | DRSC12318 | 4.49e7 | 3.19e7 | – | 2.13e7 | 1.45e7 |
| CG34309 | DRSC14838 | 3.08e7 | 4.46e7 | – | 1.50e7 | 6.65e7 |
| mRpS2 (mitochondrial ribosomal protein S2) | DRSC00550 | 2.53e7 | 2.55e7 | – | 1.18e7 | 1.09e7 |
| CG13204 | DRSC06328 | 3.06e7 | 4.25e7 | – | 1.56e7 | 2.00e7 |
| Abcd1 (ATP binding cassette subfamily D member 1) | DRSC17157 | 4.85e7 | 4.56e7 | – | 2.11e7 | 2.07e7 |
| Arr2 (Arrestin 2) | DRSC09670 | 2.92e7 | 3.73e7 | – | 1.41e7 | 1.41e7 |
| robl37BC | DRSC02472 | 6.81e7 | 4.05e7 | – | 3.23e7 | 1.69e7 |
| vap (vacuolar peduncle) | DRSC20275 | 4.24e7 | 4.09e7 | – | 1.91e7 | 1.82e7 |
| CG3419 (retired record) | DRSC04368 | 4.20e7 | 4.57e7 | – | 2.17e7 | 2.08e7 |
| CG3419 (retired record) | DRSC04369 | 4.29e7 | 5.12e7 | – | 2.16e7 | 2.24e7 |
| CG13946 | DRSC00364 | 2.42e7 | 2.45e7 | – | 1.13e7 | 1.12e7 |
| CG9514 | DRSC20190 | 2.82e7 | 3.23e7 | – | 1.55e7 | 1.55e7 |
| CG9514 | DRSC20191 | 3.44e7 | 3.20e7 | – | 1.71e7 | 1.39e7 |
| mgr (merry-go-round) | DRSC16099 | 3.05e7 | 2.76e7 | – | 1.57e7 | 1.42e7 |
| Psi (P-element somatic inhibitor) | DRSC07519 | 3.43e7 | 2.92e7 | – | 1.42e7 | 1.35e7 |
| Mob4 (MOB kinase activator 4) | DRSC04993 | 3.82e7 | – | – | 1.93e7 | – |
| CG42331 | DRSC14633 | 2.32e7 | 2.11e7 | – | 1.20e7 | 1.27e7 |
| CG42331 | DRSC16126 | 2.55e7 | 4.50e7 | – | 1.33e7 | 1.93e7 |
| PH4alphaSG2 (prolyl-4-hydroxylase-alpha SG2) | DRSC15037 | 3.74e7 | 5.01e7 | – | 1.90e7 | 2.12e7 |
| Snx3 (Sorting nexin 3) | DRSC16027 | 3.80e7 | 4.19e7 | – | 2.05e7 | 2.22e7 |
| CG7530 | DRSC16255 | 2.81e7 | 3.55e7 | – | 1.36e7 | 1.72e7 |
| CG31710 | DRSC01089 | 4.07e7 | 5.54e7 | – | 2.05e7 | 2.75e7 |
| CG31710 | DRSC22863 | 1.68e7 | 3.60e7 | – | 9.14e6 | 1.51e7 |
| ItgaPS4 (Integrin alphaPS4 subunit) | DRSC06630 | 3.46e7 | 4.79e7 | – | 1.90e7 | 1.95e7 |
| CG13891 | DRSC08361 | 3.75e7 | 4.20e7 | – | 1.99e7 | 1.98e7 |
| Dh31-R (Diuretic hormone 31 Receptor) | DRSC06647 | 2.84e7 | 4.90e7 | – | 1.45e7 | 2.19e7 |
| Dh31-R (Diuretic hormone 31 Receptor) | DRSC06669 | 2.84e7 | 4.30e7 | – | 1.37e7 | 1.75e7 |
| CG6707 | DRSC10697 | 3.48e7 | 5.15e7 | – | 1.90e7 | 2.29e7 |
| CG1888 | DRSC06797 | 3.80e7 | 4.13e7 | – | 1.78e7 | 1.85e7 |
| CG32512 | DRSC20519 | 3.72e7 | 5.06e7 | – | 2.31e7 | 2.45e7 |
| CG32512 | DRSC20551 | 3.14e7 | 4.39e7 | – | 2.10e7 | 2.20e7 |
| CG32512 | DRSC21401 | 3.48e7 | 3.55e7 | – | 2.00e7 | 1.69e7 |
| shu (shutdown) | DRSC04484 | 2.71e7 | – | – | 1.29e7 | – |
| Mlf (Myelodysplasia/myeloid leukemia factor) | DRSC07472 | 2.14e7 | 2.49e7 | – | 1.02e7 | 1.26e7 |
| dar1 (dendritic arbor reduction 1) | DRSC08049 | 5.31e7 | 4.01e7 | – | 2.61e7 | 1.93e7 |
| dar1 (dendritic arbor reduction 1) | DRSC08233 | 2.96e7 | 4.80e7 | – | 1.57e7 | 2.24e7 |
| nrm (neuromusculin) | DRSC11597 | 3.94e7 | 3.30e7 | – | 2.03e7 | 1.69e7 |
| nrm (neuromusculin) | DRSC11599 | 3.18e7 | 3.27e7 | – | 1.73e7 | 1.58e7 |
| nrm (neuromusculin) | DRSC11897 | 2.82e7 | 4.70e7 | – | 1.33e7 | 1.92e7 |
| CG12766 | DRSC08295 | 2.81e7 | 4.67e7 | – | 1.71e7 | 2.25e7 |
| Grip91 (Gamma-tubulin ring protein 91) | DRSC20249 | 3.73e7 | 3.60e7 | – | 1.70e7 | 1.89e7 |
| sc (scute) | DRSC18830 | 3.78e7 | 3.70e7 | 2.3 | 1.67e7 | 1.60e7 |
| CG13560 | DRSC04198 | 4.42e7 | 4.74e7 | – | 2.14e7 | 2.20e7 |
| CG15878 | DRSC08486 | 2.42e7 | 2.70e7 | – | 1.25e7 | 1.31e7 |
| Fpps (Farnesyl pyrophosphate synthase) | DRSC07429 | 2.60e7 | 2.39e7 | – | 1.11e7 | 1.12e7 |
| CG5188 | DRSC02826 | 3.05e7 | 5.21e7 | – | 1.57e7 | 2.09e7 |
| CtsB (Cathepsin B) | DRSC19361 | 2.28e7 | 3.10e7 | – | 1.17e7 | 1.46e7 |
| parvin | DRSC19468 | 3.61e7 | 3.58e7 | – | 1.67e7 | 1.40e7 |
| CG18754 | DRSC15387 | 3.63e7 | 2.57e7 | – | 1.47e7 | 1.05e7 |
| Dip-B (Dipeptidase B) | DRSC16466 | 3.13e7 | 3.84e7 | – | 1.38e7 | 1.62e7 |
| CG10947 | DRSC02111 | 3.90e7 | – | – | 2.22e7 | – |
| Golgin84 (Golgin-84) | DRSC15269 | 3.74e7 | 5.50e7 | – | 1.96e7 | 2.06e7 |
| CG34200 | DRSC04804 | 2.67e7 | 4.99e7 | – | 1.42e7 | 2.11e7 |
| CG43342 | DRSC13561 | 4.53e7 | 3.64e7 | – | 2.20e7 | 1.73e7 |
| Droj2 (DnaJ-like-2) | DRSC16450 | 3.11e7 | 3.59e7 | – | 1.43e7 | 1.74e7 |

10 consecutive records from above:
| Target gene | DRSC id | calcium entry signal, replicate 1 (fluorescence units) | calcium entry signal, replicate 2 (fluorescence units) | entry to resting ratio | resting calcium signal, replicate 1 (fluorescence units) | resting calcium signal, replicate 2 (fluorescence units) |
| --- | --- | --- | --- | --- | --- | --- |
| Dh31-R (Diuretic hormone 31 Receptor) | DRSC06669 | 2.84e7 | 4.30e7 | – | 1.37e7 | 1.75e7 |
| CG6707 | DRSC10697 | 3.48e7 | 5.15e7 | – | 1.90e7 | 2.29e7 |
| CG1888 | DRSC06797 | 3.80e7 | 4.13e7 | – | 1.78e7 | 1.85e7 |
| CG32512 | DRSC20519 | 3.72e7 | 5.06e7 | – | 2.31e7 | 2.45e7 |
| CG32512 | DRSC20551 | 3.14e7 | 4.39e7 | – | 2.10e7 | 2.20e7 |
| CG32512 | DRSC21401 | 3.48e7 | 3.55e7 | – | 2.00e7 | 1.69e7 |
| shu (shutdown) | DRSC04484 | 2.71e7 | – | – | 1.29e7 | – |
| Mlf (Myelodysplasia/myeloid leukemia factor) | DRSC07472 | 2.14e7 | 2.49e7 | – | 1.02e7 | 1.26e7 |
| dar1 (dendritic arbor reduction 1) | DRSC08049 | 5.31e7 | 4.01e7 | – | 2.61e7 | 1.93e7 |
| dar1 (dendritic arbor reduction 1) | DRSC08233 | 2.96e7 | 4.80e7 | – | 1.57e7 | 2.24e7 |
